{"source": "paper PMC6457538", "molecular_target": "HoLaMa W866F (UniProt P00582)", "experiment": "stopped-flow tryptophan fluorescence", "conditions": "3.4 uM enzyme, 3.2 uM DNA, 10 mM MgCl2 in DNA syringe, kobs 141 ± 7 s-1; stopped-flow: 50 mM Tris-HCl pH 8.0, 0.5 mM EDTA, 10 mM MgCl2 (DNA syringe), 20 C; recombinant protein", "note": "For at least one entry, the source does not settle the construct or the ends of the probe.", "data": [{"sequence": "AAAAAAAAAAAAAAAAAAAAAAAAAAAAAAAAGCGCGCGC / GCGCGCGCTTTTTTT [40mer polyA DNA (40mer template / 15mer primer)]", "values": [{"measurement": "binding result", "value": "binds"}]}]}
